No constants are given. Whether binding was seen depends on the method and setting. Binding can be weak; no strength is given.
B1: Arabidopsis ABF1 (protein, UniProt Q9M7Q5 1-392)
chain: MGTHIDINNLGGDTSRGNESKPLARQSSLYSLTFDELQSTLGEPGKDFGSMNMDELLKNIWTAEDTQAFMTTTSSVAAPGPSGFVPGGNGLQRQGSLTLPRTLSQKTVDEVWKYLNSKEGSNGNTGTDALERQQTLGEMTLEDFLLRAGVVKEDNTQQNENSSSGFYANNGAAGLEFGFGQPNQNSISFNGNNSSMIMNQAPGLGLKVGGTMQQQQQPHQQQLQQPHQRLPPTIFPKQANVTFAAPVNMVNRGLFETSADGPANSNMGGAGGTVTATSPGTSSAENNTWSSPVPYVFGRGRRSNTGLEKVVERRQKRMIKNRESAARSRARKQAYTLELEAEIESLKLVNQDLQKKQAEIMKTHNSELKEFSKQPPLLAKRQCLRRTLTGPW
B2: Arabidopsis ABF2 (protein, UniProt Q9M7Q4 1-416)
chain: MDGSMNLGNEPPGDGGGGGGLTRQGSIYSLTFDEFQSSVGKDFGSMNMDELLKNIWSAEETQAMASGVVPVLGGGQEGLQLQRQGSLTLPRTLSQKTVDQVWKDLSKVGSSGVGGSNLSQVAQAQSQSQSQRQQTLGEVTLEEFLVRAGVVREEAQVAARAQIAENNKGGYFGNDANTGFSVEFQQPSPRVVAAGVMGNLGAETANSLQVQGSSLPLNVNGARTTYQQSQQQQPIMPKQPGFGYGTQMGQLNSPGIRGGGLVGLGDQSLTNNVGFVQGASAAIPGALGVGAVSPVTPLSSEGIGKSNGDSSSLSPSPYMFNGGVRGRKSGTVEKVVERRQRRMIKNRESAARSRARKQAYTVELEAEVAKLKEENDELQRKQARIMEMQKNQETEMRNLLQGGPKKKLRRTESGPW
B3: Arabidopsis ABF3 (protein, UniProt Q9M7Q3 1-454)
chain: MGSRLNFKSFVDGVSEQQPTVGTSLPLTRQNSVFSLTFDEFQNSWGGGIGKDFGSMNMDELLKNIWTAEESHSMMGNNTSYTNISNGNSGNTVINGGGNNIGGLAVGVGGESGGFFTGGSLQRQGSLTLPRTISQKRVDDVWKELMKEDDIGNGVVNGGTSGIPQRQQTLGEMTLEEFLVRAGVVREEPQPVESVTNFNGGFYGFGSNGGLGTASNGFVANQPQDLSGNGVAVRQDLLTAQTQPLQMQQPQMVQQPQMVQQPQQLIQTQERPFPKQTTIAFSNTVDVVNRSQPATQCQEVKPSILGIHNHPMNNNLLQAVDFKTGVTVAAVSPGSQMSPDLTPKSALDASLSPVPYMFGRVRKTGAVLEKVIERRQKRMIKNRESAARSRARKQAYTMELEAEIAQLKELNEELQKKQVEIMEKQKNQLLEPLRQPWGMGCKRQCLRRTLTGPW
B4: Arabidopsis ABF4 (protein, UniProt Q9M7Q2 1-431)
chain: MGTHINFNNLGGGGHPGGEGSSNQMKPTGSVMPLARQSSVYSLTFDELQNTLGGPGKDFGSMNMDELLKSIWTAEEAQAMAMTSAPAATAVAQPGAGIPPPGGNLQRQGSLTLPRTISQKTVDEVWKCLITKDGNMEGSSGGGGESNVPPGRQQTLGEMTLEEFLFRAGVVREDNCVQQMGQVNGNNNNGFYGNSTAAGGLGFGFGQPNQNSITFNGTNDSMILNQPPGLGLKMGGTMQQQQQQQQLLQQQQQQMQQLNQPHPQQRLPQTIFPKQANVAFSAPVNITNKGFAGAANNSINNNNGLASYGGTGVTVAATSPGTSSAENNSLSPVPYVLNRGRRSNTGLEKVIERRQRRMIKNRESAARSRARKQAYTLELEAEIEKLKKTNQELQKKQAEMVEMQKNELKETSKRPWGSKRQCLRRTLTGPW
B5: Arabidopsis ABI5 (protein, UniProt Q9SJN0 1-442)
chain: MVTRETKLTSEREVESSMAQARHNGGGGGENHPFTSLGRQSSIYSLTLDEFQHALCENGKNFGSMNMDEFLVSIWNAEENNNNQQQAAAAAGSHSVPANHNGFNNNNNNGGEGGVGVFSGGSRGNEDANNKRGIANESSLPRQGSLTLPAPLCRKTVDEVWSEIHRGGGSGNGGDSNGRSSSSNGQNNAQNGGETAARQPTFGEMTLEDFLVKAGVVREHPTNPKPNPNPNQNQNPSSVIPAAAQQQLYGVFQGTGDPSFPGQAMGVGDPSGYAKRTGGGGYQQAPPVQAGVCYGGGVGFGAGGQQMGMVGPLSPVSSDGLGHGQVDNIGGQYGVDMGGLRGRKRVVDGPVEKVVERRQRRMIKNRESAARSRARKQAYTVELEAELNQLKEENAQLKHALAELERKRKQQYFESLKSRAQPKLPKSNGRLRTLMRNPSCPL

Target: Glycine soja 14-3-3 protein GsGF14o (Glycine soja)
Test: two-hybrid; GsGF14o fused to the GAL4 DNA-binding domain (pGBKT7) as bait, AREB/ABFs at the C-terminus of the GAL4 activating domain (pGADT7); yeast strain AH109; serial dilutions on SD/-Trp-Leu, SD/-Trp-Leu-His and SD/-Trp-Leu-His-Ade medium

binding, binds:
B1
B2
B3
B4
B5

— paper PMC4696740
